Measured values taken from publication PMC5534670.
These are yes or no findings as the source states them, for the method shown. Some entries that bind do so weakly or less than the wild type.

Sequences of proteins named here, by UniProt entry; tags and fusion partners are left off. A change or cut given only in a name is not applied to a line headed by its entry. Residues count along the entry.
UniProt Q9NNX6: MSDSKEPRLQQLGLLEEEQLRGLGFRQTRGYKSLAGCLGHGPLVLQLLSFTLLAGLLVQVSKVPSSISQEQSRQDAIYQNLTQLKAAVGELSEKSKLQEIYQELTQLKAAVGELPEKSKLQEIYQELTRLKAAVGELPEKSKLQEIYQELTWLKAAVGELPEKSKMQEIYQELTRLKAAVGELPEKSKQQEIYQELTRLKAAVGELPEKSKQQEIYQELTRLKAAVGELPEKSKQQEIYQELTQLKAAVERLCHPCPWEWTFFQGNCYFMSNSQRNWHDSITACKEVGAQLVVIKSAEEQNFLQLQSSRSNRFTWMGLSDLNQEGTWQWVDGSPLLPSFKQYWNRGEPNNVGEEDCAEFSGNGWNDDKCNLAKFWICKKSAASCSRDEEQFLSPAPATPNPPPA
DC-SIGN tetramer (entire extracellular domain): residues 59-404 of Q9NNX6
DC-SIGN monomer (CRD region alone): residues 250-404 of Q9NNX6
UniProt Q9H2X3, residues 71-399: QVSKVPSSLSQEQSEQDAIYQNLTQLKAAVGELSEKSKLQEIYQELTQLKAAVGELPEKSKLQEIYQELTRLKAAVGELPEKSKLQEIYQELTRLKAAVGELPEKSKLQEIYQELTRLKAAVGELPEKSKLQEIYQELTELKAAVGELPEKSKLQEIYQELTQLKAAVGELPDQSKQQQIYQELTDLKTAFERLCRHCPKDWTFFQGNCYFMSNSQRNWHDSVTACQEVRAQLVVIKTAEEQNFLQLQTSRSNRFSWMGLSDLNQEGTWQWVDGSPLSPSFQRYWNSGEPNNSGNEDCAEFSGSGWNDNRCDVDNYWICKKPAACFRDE
UniProt P35247, residues 201-375: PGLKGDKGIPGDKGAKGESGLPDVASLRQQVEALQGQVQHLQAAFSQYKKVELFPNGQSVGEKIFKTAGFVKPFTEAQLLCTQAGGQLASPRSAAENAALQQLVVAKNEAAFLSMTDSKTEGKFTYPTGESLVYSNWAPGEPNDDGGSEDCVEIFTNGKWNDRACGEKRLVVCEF

Columns and labels:
[1] = biological target: DC-SIGN monomer (CRD region alone) (UniProt Q9NNX6); experiment: ELISA; DC-SIGN/DC-SIGNR proteins coated (5-0.625 µg/well, carbonate/bicarbonate buffer pH 9.6); 2.5 µg rfhSP-D in 20 mM Tris-HCl pH 7.5, 100 mM NaCl, 5 mM CaCl2 or 5 mM EDTA, 1 h 37°C then 1 h 4°C; detected with anti-SP-D polyclonal and Protein A-HRP; both purified
[2] = biological target: DC-SIGN tetramer (entire extracellular domain) (UniProt Q9NNX6); experiment: as above
[3] = biological target: DC-SIGNR tetramer (entire extracellular domain) (UniProt Q9H2X3); experiment: as above
[4] = biological target: DC-SIGN monomer (CRD region alone) (UniProt Q9NNX6); experiment: far-Western, overlay or dot blot; DC-SIGN and DC-SIGNR proteins run on 12% SDS-PAGE under reducing conditions, transferred to PVDF; probed with rfhSP-D (5 µg/ml) for 2 h; anti-SP-D polyclonal, Protein A-HRP; both purified
[5] = biological target: DC-SIGN tetramer (entire extracellular domain) (UniProt Q9NNX6); experiment: as above
[6] = biological target: DC-SIGNR tetramer (entire extracellular domain) (UniProt Q9H2X3); experiment: as above

binding [1]: binds | binding [2]: binds | binding [3]: binds | binding [4]: binds | binding [5]: binds | binding [6]: binds
Substance: recombinant fragment of human surfactant protein D (rfhSP-D) (from UniProt P35247 201-375) (domain or fragment)
